From publication PMC5653238
No constants are given. Whether binding was seen depends on the method and setting. In cells and extracts the contact can be indirect. Some binding calls cover weakened binding; strength is not graded here. Where a sequence is shown, tags or fusion partners need not be part of it.

Molecular target: T1, GFP-delta-tubulin (human) (UniProt Q9UJT1)
T1 sequence: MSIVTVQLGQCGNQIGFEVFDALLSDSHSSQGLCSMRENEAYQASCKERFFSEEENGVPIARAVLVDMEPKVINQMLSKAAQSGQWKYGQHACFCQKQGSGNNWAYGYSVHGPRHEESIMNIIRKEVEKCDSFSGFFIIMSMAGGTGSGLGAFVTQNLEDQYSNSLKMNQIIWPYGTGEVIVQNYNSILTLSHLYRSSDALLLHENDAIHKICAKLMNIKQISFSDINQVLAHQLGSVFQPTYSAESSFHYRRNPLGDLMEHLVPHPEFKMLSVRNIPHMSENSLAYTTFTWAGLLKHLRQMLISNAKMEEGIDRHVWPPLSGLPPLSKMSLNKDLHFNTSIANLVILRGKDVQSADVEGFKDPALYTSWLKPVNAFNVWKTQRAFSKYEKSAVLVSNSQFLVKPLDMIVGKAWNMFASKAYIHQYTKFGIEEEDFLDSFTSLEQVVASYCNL
Assay: co-IP; HEK293T cells co-transfected with tagged proteins; lysate (50 mM Hepes pH 7.4, 150 mM NaCl, 1 mM DTT, 1 mM EGTA, 1 mM MgCl2, 0.25 mM GTP, 0.5% Triton X-100) incubated 2 hr at 4°C with GFP-binding protein on Sepharose; blots with anti-GFP and anti-myc

B1: myc-epsilon-tubulin (protein, UniProt Q9UJT0 1-475)
chain: MTQSVVVQVGQCGNQIGCCFWDLALREHAAVNQKGIYDEAISSFFRNVDTRVVGDGGSISKGKICSLKARAVLIDMEEGVVNEILQGPLRDVFDTKQLITDISGSGNNWAVGHKVFGSLYQDQILEKFRKSAEHCDCLQCFFIIHSMGGGTGSGLGTFLLKVLEDEFPEVYRFVTSIYPSGEDDVITSPYNSILAMKELNEHADCVLPIDNQSLFDIISKIDLMVNSGKLGTTVKPKSLVTSSSGALKKQHKKPFDAMNNIVANLLLNLTSSARFEGSLNMDLNEISMNLVPFPQLHYLVSSLTPLYTLTDVNIPPRRLDQMFSDAFSKDHQLLRADPKHSLYLACALMVRGNVQISDLRRNIERLKPSLQFVSWNQEGWKTSLCSVPPVGHSHSLLALANNTCVKPTFMELKERFMRLYKKKAHLHHYLQVEGMEESCFTEAVSSLSALIQEYDQLDATKNMPVQDLPRLSIAM
  binding: binds
